Results on two substances are retold here after PMC12324116.

Amino acid sequences for entries named in this document (tags omitted).
UniProt A0ACD7PPF0: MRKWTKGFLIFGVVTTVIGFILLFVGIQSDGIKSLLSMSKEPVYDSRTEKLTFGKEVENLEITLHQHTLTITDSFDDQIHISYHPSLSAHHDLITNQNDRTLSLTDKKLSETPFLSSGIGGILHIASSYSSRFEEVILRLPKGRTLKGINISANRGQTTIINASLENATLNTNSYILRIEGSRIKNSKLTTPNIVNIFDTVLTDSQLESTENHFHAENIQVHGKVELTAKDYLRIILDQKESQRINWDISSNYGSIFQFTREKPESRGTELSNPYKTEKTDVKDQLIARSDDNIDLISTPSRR

Assay [1] deals with PtvA, T25 fusion from pKT25 (Streptococcus pneumoniae). The assay is described as follows: two-hybrid; bacterial adenylate cyclase-based two-hybrid (BATCH), T25 and T18 fusions co-expressed in E. coli BTH101; colony colour on MacConkey/maltose plates with 0.5 mM IPTG for 4-8 days and beta-galactosidase activity.
For assay [2], the target named is T25-PtvB (Streptococcus pneumoniae). The description is as above.

No constants are given. Whether binding was seen depends on the method and setting. Some entries that bind do so weakly or less than the wild type.

For “PtvB with T18 fused to the N-terminal (from UniProt A0ACD7PPF0 1-303)”, the binding entry in assay [1] was “no binding”.

As to “PtvC with T18 fused to the N-terminal (from UniProt A0ACD7PPC1 1-354)”, the binding result in assay [2] was “binds”.
